Assay results taken from article PMC11374535.
No constants are given. Whether binding was seen depends on the method and setting. A result given as binding can be weak or reduced; the word gives no strength. For some assays here: Binding seen in cells or lysates may run through a third protein. For some assays here: Where a sequence is shown, tags or fusion partners need not be part of it.

B1: pGADT7-SlTrxh (protein, UniProt Q9LKW0 1-175)
chain: MQAASLAFHPPALRTSPSYLSSKLPHHLNYSLFKHAPSTSTLSLTQVLSRNTICKPPAVGKYVREDYLVKKLSAKEIQELIKGERNVPLIIDFYATWCGPCILMAQELEMLAVEYENNALIVKVDTDDEYEFARDMQVRGLPTLYFISPDSSKDAIRTEGLIPIQMMRDIIDNDL
B2: cLUC-SlTrxh (protein, UniProt Q9LKW0 65-175)
chain: EDYLVKKLSAKEIQELIKGERNVPLIIDFYATWCGPCILMAQELEMLAVEYENNALIVKVDTDDEYEFARDMQVRGLPTLYFISPDSSKDAIRTEGLIPIQMMRDIIDNDL

Experiments:
[1] = target: pGBKT7-SlGrx9 (tomato (Solanum lycopersicum)); experiment: two-hybrid; pairwise; pGADT7-SlTrxh as prey, pGBKT7-SlGrx9 as bait; yeast Y2H Gold; growth on SD/-Leu/-Trp/-His/-Ade
[2] = target: SlGrx9-nLUC (tomato (Solanum lycopersicum)); experiment: split reporter; luciferase complementation assay (LCA) in N. benthamiana leaves, 48-72 h after infiltration; 1 mM D-luciferin; also with nitrate, GSNO (NO donor) or cPTIO (NO scavenger) added

Binder | binding [1] | binding [2]
B1 | binds | –
B2 | – | binds
